No constants are given. Whether binding was seen depends on the method and setting. In cells and extracts the contact can be indirect. Some results given as binding are weak or reduced against the parent protein; the word gives no strength. Where a sequence is shown, tags or fusion partners need not be part of it.
Target: TGFβ Receptor II/TF/IL-15 fusion protein (human)
Assay: reduced SDS-PAGE (4-12% NuPage Bis-Tris gel, InstantBlue) of TGFRt15-TGFRs purified on the anti-TF antibody affinity column, before and after deglycosylation; co-purification of the two chains

- binding: binds
B1: TGFβ Receptor II/IL-15RαSu fusion protein (protein)
chain: IPPHVQKSVNNDMIVTDNNGAVKFPQLCKFCDVRFSTCDNQKSCMSNCSITSICEKPQEVCVAVWRKNDENITLETVCHDPKLPYHDFILEDAASPKCIMKEKKKPGETFFMCSCSSDECNDNIIFSEEYNTSNPDGGGGSGGGGSGGGGSIPPHVQKSVNNDMIVTDNNGAVKFPQLCKFCDVRFSTCDNQKSCMSNCSITSICEKPQEVCVAVWRKNDENITLETVCHDPKLPYHDFILEDAASPKCIMKEKKKPGETFFMCSCSSDECNDNIIFSEEYNTSNPDITCPPPMSVEHADIWVKSYSLYSRERYICNSGFKRKAGTSSLTECVLNKATNVAHWTTPSLKCIR

Source: patent US20260137759A1
